Targets (5′ to 3′):
SAM-II: SAM-II riboswitch RNA pseudoknot, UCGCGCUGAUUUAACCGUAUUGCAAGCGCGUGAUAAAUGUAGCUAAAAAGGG. Hit rate about 1% of about 21,000 compounds.
PreQ1: PreQ1 riboswitch RNA pseudoknot, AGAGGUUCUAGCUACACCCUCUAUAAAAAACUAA. From B. subtilis. Hit rate about 0.7% of about 24,000 compounds.
TPP: TPP riboswitch RNA three-way junction, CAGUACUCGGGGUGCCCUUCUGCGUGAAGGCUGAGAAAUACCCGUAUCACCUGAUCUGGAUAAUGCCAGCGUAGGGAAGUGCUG. Hit rate about 0.7% of about 24,000 compounds.

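Compounds were printed on reactive glass slides in duplicate spots, a dye-labelled oligonucleotide was laid over them, and the fluorescence left after washing was read. For the PreQ1, TPP and SAM-II riboswitches the laboratory earlier reported (doi:10.1038/s41467-019-09493-3) 1 µM RNA, 2 h, and a rule that included a mean Z-score above 3 (spot signal-to-noise against the whole library), a score well above that on a control array, and duplicate spots agreeing (coefficient of variation under 100). The data file gives only the calls; its cut-offs may differ, and compounds hitting several targets are kept. The calls come from the array alone, and fixing a compound to the slide can hide its binding.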 A compound is marked active if it was called a hit and inactive if it was screened but was not. This is an unselected part of the compounds tested. A dash means that no call is listed here.

Compound,SAM-II,PreQ1,TPP
CCNc1nc(Cl)nc(-c2cn(-c3ccccc3)c3ccccc23)n1,inactive,inactive,inactive
COc1cccc(-c2c(-c3ccccc3)ncn2[C@H]2CC[C@H](O)CC2)c1F,inactive,inactive,inactive
Cc1noc(C)c1CCC(=O)NCc1cc2n(n1)CCCNC2,inactive,inactive,inactive
O=C(CCc1nc(-c2ccncc2)no1)N[C@@H]1CCNC[C@H]1O,inactive,inactive,inactive
Cc1cc(-c2cccs2)c2c(N)c(C(=O)c3ccccc3)sc2n1,inactive,inactive,inactive
Cc1nn2c(N)c(C#N)cnc2c1-c1ccc(F)cc1,-,inactive,inactive
Cc1ccc2cc(CO)c(N3CC(c4ccncc4)C3)nc2c1,inactive,inactive,inactive
Nc1nonc1-c1nc2ccccc2n1CC(=O)NCc1ccccc1,inactive,inactive,inactive
C=CCOc1ccc(C2CC(=O)Nc3nc(N)sc32)cc1 (stereo not given),inactive,inactive,inactive
Cc1ccc(-c2noc(-c3nnn(-c4cccc(Cl)c4)c3N)n2)cc1,-,inactive,inactive
CCOc1cc(C2c3c(oc4cc(C)cc(C)c4c3=O)C(=O)N2CCO)ccc1O (stereo not given),-,inactive,inactive
CNc1ccc(N2CCOCC2)c2c1C(=O)c1ccccc1C2=O,inactive,inactive,inactive
O=C1CC(Nc2ccc(N3CCOCC3)cc2)C(=O)N1c1cccc(Cl)c1 (stereo not given),inactive,inactive,inactive
N#CC1=C(N)OC2=C(C(=O)CC(c3ccccc3)C2)C1Cc1ccccc1 (stereo not given),inactive,inactive,inactive
CC(Nc1nc(-c2ccccc2)c2cc(Br)ccc2n1)C(=O)O (stereo not given),inactive,inactive,inactive
CC(C)N1C(=O)C(Cc2nc3ccccc3c(=O)n2CCCO)c2ccccc21 (stereo not given),-,inactive,inactive
N[C@@H]1CC[C@H](C(=O)NCc2csc(-c3ncccn3)n2)C1,inactive,inactive,inactive
COc1cc(OC)cc(C2(C#N)CCN(C)CC2)c1,inactive,inactive,inactive
CNCc1nc(C2CCOC2)nn1-c1nc2ccccc2[nH]1 (stereo not given),inactive,inactive,inactive
O=C(CN1CCOc2ccccc2C1)NCc1cc2n(n1)CCNC2,inactive,inactive,inactive
Cc1ccc(-c2nc3[nH]cnn3c2Nc2ccccc2)cc1,inactive,inactive,inactive
COc1ccc(N2CCN(C3CCCN(C(=O)CO)C3)CC2)cc1 (stereo not given),inactive,inactive,inactive
CC(C)CC(O)C(=O)N1CCCN(C(=O)c2ccco2)CC1 (stereo not given),inactive,inactive,inactive
NC1CCCCN(C(=O)C2CCCCCC2)C1 (stereo not given),inactive,inactive,inactive
NCCc1ccc(CN2CCC(c3ccccc3F)C2)cc1 (stereo not given),inactive,inactive,inactive
Cc1c(C(=O)N2CCCCCC2)nnn1-c1nonc1N,inactive,inactive,inactive
CC(=NNC(=O)c1cc(C23CC4CC(CC(C4)C2)C3)n[nH]1)c1ccc(N)cc1,inactive,inactive,active
O=c1[nH]c(CSCCO)nc2c1C1(CCCCC1)Cc1ccccc1-2,inactive,inactive,inactive
CCNc1c(NS(=O)(=O)c2ccc(F)c(Cl)c2)c(=O)oc2ccccc12,inactive,inactive,inactive
Cc1cccc(NC(=O)CSc2nnc(C(O)c3ccccc3)n2-c2ccccc2)c1C (stereo not given),inactive,inactive,inactive
Cc1cc(C)cc(-n2nc(CC3CCN(C)CC3)nc2C2CNCCO2)c1 (stereo not given),inactive,inactive,inactive
Cc1cc(C)n2nc(NCc3ccc(F)cc3)nc2n1,-,inactive,inactive
Nc1c(Br)cc(Br)c2cccnc12,inactive,inactive,inactive
Cc1ccc(-c2noc(-c3cccnc3NCc3ccco3)n2)cc1,-,inactive,inactive
Nc1ncc(C(=O)N2CCCC(OCc3ccccc3)C2)c(-c2ccccc2)n1 (stereo not given),inactive,inactive,inactive
CC(O)c1ccc(-c2cnc3ccccc3c2)cc1 (stereo not given),inactive,inactive,inactive
CN1CCN(CC(O)c2ccc(N)cc2)CC1 (stereo not given),inactive,inactive,inactive
OCc1cc(-c2cnc3ccccc3c2)ccc1F,inactive,inactive,inactive
CNC(=O)[C@@H]1C[C@H](N)CN1C(=O)c1nnn(Cc2ccccc2)c1C,inactive,inactive,inactive
O=C(O)c1cc(N2C(=O)C=CC2=O)cc(N2C(=O)C=CC2=O)c1,inactive,inactive,inactive
COc1cc([C@H]2Oc3cc([C@H]4Oc5cc(O)cc(O)c5C(=O)[C@H]4O)ccc3O[C@H]2CO)ccc1O,inactive,inactive,inactive
CC(NCc1ccc(Cl)c(Cl)c1)C(=O)NC1CCCC1 (stereo not given),inactive,inactive,inactive

Calls as published in the ROBIN set (doi:10.1002/anie.202211358).